Data as given in PubChem BioAssay AID1671195 (Yale University, 2021).
In all, the deposit lists about 22,000 reagents; below is an unselected part. Over the whole deposit, about 1,510 (6.9%) got an active call. 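Active includes knockdowns raising or lowering LDL uptake; positive z-scores mean more uptake, negative mean less.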 Unmarked entries are inactive. The numbers tell different reagents against one gene apart.

- Aim: 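Genes whose knockdown alters LDL uptake in liver cancer cells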 (primary screen)
- Cell system: human Huh7 hepatoma cells
- Reagent: siRNA pool against human genes, 18 nM
- Duration: about 2 to 2.5 days of knockdown, then 8 h LDL uptake
- Challenge: DiI-labelled LDL at 30 µg/ml for 8 h, in lipoprotein-deficient serum medium
- Detection: 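Fluorescent LDL signal imaged in cells, scaled to the plate median, robust z-score for each replicate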
- Reading the numbers: robust z-score: higher = more LDL uptake after knockdown
- Call rule: 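a gene counts as active if at least two replicate z-scores exceed ±2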

The first 3 records, to show the layout:
gene symbol,reagent no.,"robust z-score, replicate 1","robust z-score, replicate 2","robust z-score, replicate 3"
OR13C5,1,-0.81,-0.851,0.364
IL18,1,2.83 (active),3.51,3.26
GRB7,1,-1.31,-0.434,-1.58

The listing, from the start:
gene symbol,reagent no.,"robust z-score, replicate 1","robust z-score, replicate 2","robust z-score, replicate 3"
OR13C5,1,-0.81,-0.851,0.364
IL18,1,2.83 (active),3.51,3.26
GRB7,1,-1.31,-0.434,-1.58
CLOCK,1,-1.4,-0.82,-1.16
ZSCAN23,1,0.163,0.272,1.25
TTC9C,1,-1.09,-1.23,-1.12
PCGF2,1,0.378,0.357,0.509
ZNF236,1,-0.242,-1.82,-1.16
ACP6,1,0.168,0.386,0.461
ERCC6L2,1,0.288,0.151,0.423
ERCC6L2,2,0.423,-0.239,0.162
PPP1CB,1,0.0765,0.12,0.752
NPDC1,1,-1.72,-1.68,-1.59
LARGE2,1,0.466,0.164,-0.566
LINC03040,1,1.86,1.65,2.19
RPL36AP45,1,0.389,0.291,0.509
KCTD2,1,-0.784,-1.81,-0.425
COL5A1,1,-0.116,0.917,1.73
PLA2G4D,1,-0.0763,0.538,0.369
LOC389153 (retired record),1,0.234,0.395,0.164
SLC7A11,1,-0.44,-0.457,-0.116
LOC401500 (retired record),1,-0.906,-0.835,-0.616
TFAM,1,0.635,1.35,2.07
GHSR,1,-1.14,0.0039,-0.688
LOC285188 (retired record),1,0.199,-0.0971,-0.171
ANKRD62,1,0.371,0.713,0.804
PLEKHM1P1,1,-0.986,-0.773,-0.861
GNAI3,1,1.11,0.745,1.12
